The text below walks through data of paper PMC8564539.

Protein sequences, listed by entry. Tags and fused reporters are not part of them. Residues count along the entry.
UniProt Q9ULZ3, residues 107-195: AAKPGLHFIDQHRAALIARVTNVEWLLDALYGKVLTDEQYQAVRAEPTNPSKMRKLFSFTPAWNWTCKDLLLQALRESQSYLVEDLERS

No constants are given. Whether binding was seen depends on the method and setting. In cells and extracts the contact can be indirect. Some binding calls cover weakened binding; strength is not graded here.

This assay has as its target T1, NLRC4-CARD-AGIA (human) (UniProt Q9NPP4).
T1 sequence: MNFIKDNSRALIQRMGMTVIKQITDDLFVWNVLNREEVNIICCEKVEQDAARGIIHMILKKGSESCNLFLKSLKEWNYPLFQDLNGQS
The assay can be described thus: co-IP; AGIA-tagged and FLAG-tagged domain co-expressed in HEK293T; NP-40 buffer lysate; anti-AGIA or anti-FLAG M2 antibody with protein A beads, 3 h, 4 °C; immunoblot with the other tag's antibody.

Consider “ASC-CARD-FLAG (from UniProt Q9ULZ3 107-195) (domain or fragment)”, for which the binding result was “binds”.
